Experimental data published in the supplement of paper PMC6411743.
± gives the standard deviation of the averaged measurements. Some of the results follow.

Protein sequences, listed by entry. Tags and fused reporters are not part of them. Lines headed by an entry give the natural chain unless they say otherwise; changes in a name come on top.
UniProt Q02241: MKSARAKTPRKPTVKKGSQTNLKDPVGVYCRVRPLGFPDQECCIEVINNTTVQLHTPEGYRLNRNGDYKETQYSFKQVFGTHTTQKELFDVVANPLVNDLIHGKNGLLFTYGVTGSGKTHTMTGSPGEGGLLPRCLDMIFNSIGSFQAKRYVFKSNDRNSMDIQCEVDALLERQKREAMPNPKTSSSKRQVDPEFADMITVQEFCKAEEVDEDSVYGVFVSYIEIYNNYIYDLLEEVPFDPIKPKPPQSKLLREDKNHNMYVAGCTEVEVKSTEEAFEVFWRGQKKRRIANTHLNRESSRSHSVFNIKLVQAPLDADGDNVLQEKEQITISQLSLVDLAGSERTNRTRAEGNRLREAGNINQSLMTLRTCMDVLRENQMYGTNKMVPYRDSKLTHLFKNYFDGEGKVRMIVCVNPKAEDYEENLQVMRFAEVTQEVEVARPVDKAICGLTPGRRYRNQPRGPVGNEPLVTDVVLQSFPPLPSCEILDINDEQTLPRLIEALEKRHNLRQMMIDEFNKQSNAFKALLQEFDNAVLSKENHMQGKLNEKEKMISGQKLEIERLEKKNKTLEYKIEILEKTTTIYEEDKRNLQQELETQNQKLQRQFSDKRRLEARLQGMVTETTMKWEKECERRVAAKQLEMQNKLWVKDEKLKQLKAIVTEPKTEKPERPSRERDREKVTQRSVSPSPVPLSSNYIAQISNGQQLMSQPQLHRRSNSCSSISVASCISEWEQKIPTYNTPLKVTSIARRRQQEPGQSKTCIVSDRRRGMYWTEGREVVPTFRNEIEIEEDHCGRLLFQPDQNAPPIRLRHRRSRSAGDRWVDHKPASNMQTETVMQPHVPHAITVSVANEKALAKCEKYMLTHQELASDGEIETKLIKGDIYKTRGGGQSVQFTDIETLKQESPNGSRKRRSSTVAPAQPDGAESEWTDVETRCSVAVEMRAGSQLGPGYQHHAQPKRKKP
UniProt Q96FV2: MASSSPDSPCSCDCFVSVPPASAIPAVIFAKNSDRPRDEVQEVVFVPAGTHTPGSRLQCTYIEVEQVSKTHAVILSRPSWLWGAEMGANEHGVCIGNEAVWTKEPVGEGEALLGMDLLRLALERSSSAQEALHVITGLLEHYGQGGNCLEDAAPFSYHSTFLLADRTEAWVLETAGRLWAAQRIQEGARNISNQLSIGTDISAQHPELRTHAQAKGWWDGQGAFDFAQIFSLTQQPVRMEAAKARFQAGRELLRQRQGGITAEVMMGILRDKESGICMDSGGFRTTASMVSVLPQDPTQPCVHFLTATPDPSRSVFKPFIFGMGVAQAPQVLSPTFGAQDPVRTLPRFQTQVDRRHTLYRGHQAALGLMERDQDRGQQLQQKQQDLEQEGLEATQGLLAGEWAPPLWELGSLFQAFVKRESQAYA
UniProt Q9NTK5, whole entry, looked up: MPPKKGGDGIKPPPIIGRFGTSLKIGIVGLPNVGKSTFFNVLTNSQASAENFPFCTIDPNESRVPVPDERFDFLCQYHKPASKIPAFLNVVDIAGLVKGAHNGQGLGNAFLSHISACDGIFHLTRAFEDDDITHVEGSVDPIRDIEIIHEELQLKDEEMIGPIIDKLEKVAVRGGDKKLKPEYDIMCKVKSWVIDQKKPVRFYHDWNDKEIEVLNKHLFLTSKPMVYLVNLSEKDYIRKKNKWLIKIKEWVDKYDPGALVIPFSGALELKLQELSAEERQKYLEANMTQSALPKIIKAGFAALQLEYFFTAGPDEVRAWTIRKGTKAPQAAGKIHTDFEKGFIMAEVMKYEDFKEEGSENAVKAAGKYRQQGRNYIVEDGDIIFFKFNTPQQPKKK
UniProt P50990: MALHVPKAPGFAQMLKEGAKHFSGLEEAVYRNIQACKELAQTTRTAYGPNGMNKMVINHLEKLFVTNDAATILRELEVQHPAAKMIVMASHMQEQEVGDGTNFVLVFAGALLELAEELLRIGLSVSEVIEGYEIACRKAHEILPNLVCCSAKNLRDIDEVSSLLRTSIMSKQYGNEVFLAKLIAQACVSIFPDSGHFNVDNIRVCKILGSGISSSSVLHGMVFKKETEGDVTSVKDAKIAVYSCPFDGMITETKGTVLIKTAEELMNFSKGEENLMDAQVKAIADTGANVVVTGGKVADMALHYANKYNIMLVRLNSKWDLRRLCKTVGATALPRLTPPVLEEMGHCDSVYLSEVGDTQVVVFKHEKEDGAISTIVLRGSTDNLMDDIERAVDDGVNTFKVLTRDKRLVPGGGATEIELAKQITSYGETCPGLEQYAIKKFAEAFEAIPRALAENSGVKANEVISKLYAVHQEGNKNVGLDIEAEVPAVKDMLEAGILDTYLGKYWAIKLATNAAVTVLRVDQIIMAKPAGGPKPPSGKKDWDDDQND

Compound: Nc1nc2c(ncn2[C@@H]2O[C@H](COP(=O)(O)OP(=O)(O)OP(=O)(O)O)[C@@H](O)[C@H]2O)c(=O)[nH]1 [guanosine triphosphate]
Assay: NP40-soluble protein abundance relative to vehicle (solubility fold change) (ratio); higher = more soluble protein in presence of GTP
Method: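 Solubility proteome profiling in Jurkat crude lysate. Lysate was treated with Mg-GTP (0.1-10 mM) for 10 min at room temperature and 3 min at 37 °C, then solubilised with 0.8% NP40 and benzonase, followed by ultracentrifugation. Proteins were quantified by TMT10 LC-MS/MS; the value is the NP40-soluble abundance relative to the NP40-processed vehicle, from 3 independent experiments.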

| Target | NP40-soluble protein abundance (concentration: 0.1mM) | NP40-soluble protein abundance (concentration: 0.5mM) | NP40-soluble protein abundance (concentration: 1mM) | NP40-soluble protein abundance (concentration: 2mM) | NP40-soluble protein abundance (concentration: 4mM) | NP40-soluble protein abundance (concentration: 6mM) | NP40-soluble protein abundance (concentration: 8mM) | NP40-soluble protein abundance (concentration: 10mM) |
| --- | --- | --- | --- | --- | --- | --- | --- | --- |
| H7BYN4 and related entries (UniProt Q02241) | 1.1 ± 0.048 | 1.03 ± 0.036 | 1.0707 ± 0.00082 | 1.09 ± 0.021 | 1.114 ± 0.0076 | 1.13 ± 0.046 | 1.12 ± 0.084 | 1.09 ± 0.041 |
| J3QL71 and related entries (UniProt Q96FV2) | 1.02 ± 0.032 | 1.01 ± 0.032 | 0.964 ± 0.037 | 0.939 ± 0.048 | 0.915 ± 0.062 | 0.912 ± 0.027 | 0.913 ± 0.052 | 0.869 ± 0.038 |
| H0YHA7 and related entries (UniProt Q07020) | 1 ± 0.045 | 1.03 ± 0.058 | 1.06 ± 0.14 | 1.01 ± 0.19 | 0.906 ± 0.2 | 0.811 ± 0.19 | 0.637 ± 0.096 | 0.839 ± 0.2 |
| J3KQ32 and related entries (UniProt Q9NTK5) | 0.941 ± 0.044 | 0.947 ± 0.033 | 0.881 ± 0.039 | 0.863 ± 0.03 | 0.843 ± 0.05 | 0.833 ± 0.026 | 0.815 ± 0.071 | 0.809 ± 0.082 |
| H7C4C8 and related entries (UniProt P50990) | 0.986 ± 0.01 | 1.05 ± 0.061 | 1.07 ± 0.1 | 1.06 ± 0.15 | 1.05 ± 0.17 | 1.06 ± 0.17 | 1.05 ± 0.18 | 1 ± 0.19 |
